Measurements from patent US20150031541A1 (priority 2012, published 2015).
Like-named read-outs stand apart in the source and are kept apart here. Some results were stated once for a whole list of compounds, not compound by compound.

What was measured:
Phytophthora infestans [1] = assay type: in vivo; conditions: 200 ppm; potato plants cv. Bintje, inoculated one day before application; compared to untreated
Plasmopara viticola [2] = assay: Plasmopara viticola/Grape/Leaf Disc Preventative (Grape Downy Mildew); assay type: in vivo; conditions: 200 ppm; grape vine leaf disks, inoculated 1 day after application; compared to untreated
Phytophthora infestans [3] = assay type: in vivo; conditions: 200 ppm; tomato leaf disks, inoculated 1 day after application; compared to untreated
Phytophthora infestans [4] = assay type: in vivo; conditions: 200 ppm; potato plants cv. Bintje, inoculated 6 days after application; compared to untreated
Phytophthora infestans [5] = assay type: in vivo; conditions: 200 ppm; potato plants cv. Bintje, inoculated 2 days after application; compared to untreated
Plasmopara viticola [6] = assay: Plasmopara viticola/Grape/Long Lasting (Grape Downy Mildew); assay type: in vivo; conditions: 200 ppm; grape seedlings cv. Gutedel, inoculated 6 days after application; compared to untreated
Pythium ultimum = assay: Pythium ultimum/Liquid Culture (Seedling Damping Off); assay type: cell-based; conditions: 200 ppm; liquid culture in PDB, inhibition of growth determined photometrically 2-3 days after application
Plasmopara viticola [7] = assay: Plasmopara viticola/Grape/Preventative (Grape Downy Mildew); assay type: in vivo; conditions: 200 ppm; grape seedlings cv. Gutedel, inoculated one day after application; compared to untreated

Measured: disease control

CSC1CN(C(=O)Cn2nc(C(F)(F)F)cc2C)CCC1c1nc(C2=NOC(c3c(F)cccc3F)C2)cs1 (stereo not shown) [I.az.007, 1-[4-[4-[5-(2,6-difluorophenyl)-4,5-dihydroisoxazol-3-yl]thiazol-2-yl]-3-methylsulfanyl-1-piperidyl]-2-[5-methyl-3-(trifluoromethyl)pyrazol-1-yl]ethanone]
at least 80%: all assays above

Cc1cc(C(F)(F)F)nn1CC(=O)N1CCC(c2nc(C3=NOC(c4c(F)cccc4F)C3)cs2)C([S+](C)[O-])C1 (stereo not shown) [I.az.008, 1-[4-[4-[5-(2,6-difluorophenyl)-4,5-dihydroisoxazol-3-yl]thiazol-2-yl]-3-methylsulfinyl-1-piperidyl]-2-[5-methyl-3-(trifluoromethyl)pyrazol-1-yl]ethanone]
at least 80%: Plasmopara viticola [2] | Phytophthora infestans [3] | Pythium ultimum

Cc1cc(C(F)(F)F)nn1CC(=O)N1CCC(c2nc(C3=NOC(c4c(F)cccc4F)C3)cs2)C(S(C)(=O)=O)C1 (stereo not shown) [I.az.009, 1-[4-[4-[5-(2,6-difluorophenyl)-4,5-dihydroisoxazol-3-yl]thiazol-2-yl]-3-methylsulfonyl-1-piperidyl]-2-[5-methyl-3-(trifluoromethyl)pyrazol-1-yl]ethanone]
at least 80%: Plasmopara viticola [2] | Phytophthora infestans [3] | Pythium ultimum

CSC1CN(C(=O)Cn2nc(C(F)F)cc2C(F)F)CCC1c1nc(C2=NOC(c3c(F)cccc3F)C2)cs1 (stereo not shown) [I.az.223, 2-[3,5-bis(difluoromethyl)pyrazol-1-yl]-1-[4-[4-[5-(2,6-difluorophenyl)-4,5-dihydroisoxazol-3-yl]thiazol-2-yl]-3-methylsulfanyl-1-piperidyl]ethanone]
at least 80%: all assays above
